# Test results as given in PubChem BioAssay AID2417 (National Center for Advancing Translational Sciences (NCATS), 2010).
# Among all 140,000 compounds or so, about 4,300 (3.1%) were called active. The inconclusive results got no clear call from the source; some entries with a clear call stand among them for comparison.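 How the source made its calls: active means readout at or below -70, meaning at least 70% loss of cells showing the perinucleolar compartment, a nuclear body marking cancer cells; inconclusive means readout between -30 and a set limit; inactive means the rest.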
# Experiment: High Content Assay for Compounds that inhibit the Assembly of the Perinucleolar Compartment;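 further: plate controls were DMSO wells for no effect and camptothecin positive control wells for full effect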
# Conditions: PC3M PTB-GFP, PNC prevalence imaging, 16 h; at 10 µM; active compounds read low
# Outline: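 Read-out is percentage of cells bearing a perinucleolar compartment, from automated 20x imaging of fixed, Hoechst-stained PC3M PTB-GFP cells. Cells were seeded 4 h, then exposed 16 h to compound (23 nl of library stock) in duplicate plates.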
row,Structure (SMILES),"activity change (PNC), negative = inhibition"
1,Cc1sc(NC(=O)c2cccs2)nc1-c1ccccc1,inactive: -9.07%
2,O=c1c(Cl)c(N2CCCCC2)cnn1-c1nc2ccccc2[nH]1,inconclusive: -63%
3,COc1ccc(/C=C/c2nc(N)nc(-c3ccccc3O)n2)cc1OC,inactive: 39.6%
4,COC(=O)c1cc(C#N)c(SCc2ccccc2)nc1C,inconclusive: -32%
5,Cc1sc2nc(SCC(=O)N(CCO)CCO)n(C3CCCCC3)c(=O)c2c1C,inconclusive: -50.4%
6,O=C(OCC(=O)N1CCc2ccccc21)c1c2c(nc3ccccc13)CCCC2,active: -110%
7,COc1cc(C)c(C(C)C)cc1S(=O)(=O)N1CCN(C)CC1,inactive: -27.3%
8,COC(=O)C(C(C)=O)C1=C/C(=N\S(=O)(=O)c2ccc(C)cc2)c2ccccc2C1=O (stereo unspecified),inactive: -7.35%
9,O=C(CC1C(=O)N(c2ccccc2)C(=S)N1c1ccccc1)c1ccccc1 (stereo unspecified),inconclusive: -32.5%
10,O=C(N/N=C1/CC2C=CCC12)c1ccc(Br)o1 (stereo unspecified),inactive: -28.7%
11,CCn1c(SCC(=O)Nc2ccccc2)nnc1C1CCCCC1,inconclusive: -50.7%
12,CCOc1ccccc1N(C(=O)Cn1nnnc1-c1ccc(C)o1)C(CC)C(=O)NC(C)(C)C (stereo unspecified),inactive: 21.6%
13,COc1ccc2cc(CCNC(=O)C(C)(C)C)c(=O)[nH]c2c1,inconclusive: -65.8%
14,Cc1cc(F)c(F)c(C(=O)NC2CC2)c1Cl,inconclusive: -37.3%
15,Cc1ccccc1C(=O)/C=C1\NC(=O)CS1,inactive: -13.6%
16,COC(=O)c1ccc(C(=O)OC)c(NC(=O)N2c3ccccc3Sc3ccccc32)c1,inconclusive: -37.2%
17,Cc1cccc(Cn2c(=O)n(Cc3ccco3)c(=O)c3ccccc32)c1,inconclusive: -54.3%
18,CC(=O)c1cccc(NC(=O)C(Sc2ncnc3ccccc23)c2ccccc2)c1 (stereo unspecified),inactive: -25.5%
19,N#Cc1sc2nc(-c3cccs3)cc(-c3ccccc3)c2c1N,inactive: 32.9%
20,CCOC(=O)c1sc(Nc2ccc(C)cc2C)nc1C,inactive: 0.374%
21,COC(=O)c1nn(C23CC4CC(CC(C4)C2)C3)c2c1C(=O)N(c1ccc(Br)cc1)C2=O,inconclusive: -56.6%
22,COc1ccc2ccc3c(c2c1)N=CC1(O3)N(C)c2ccccc2C1(C)C (stereo unspecified),inactive: 32.5%
23,COC(=O)c1ccc(CSc2ncnc3c2oc2ccccc23)o1,inconclusive: -37.1%

row,Structure (SMILES),"activity change (PNC), negative = inhibition"
1,Cc1cc(N2CC(=O)N(CCc3ccccc3)C(=O)C2)n2ncnc2n1,inconclusive: -53.1%
2,CN(C)c1nc(Nc2ccc(Cl)cc2)nc(OCC#N)n1,inconclusive: -66.1%
3,COc1ccc(C(=O)CSc2nnc(COc3ccccc3)n2Cc2ccco2)cc1,inconclusive: -31.7%
4,CCn1cc([N+](=O)[O-])c(C(=O)Nc2cc(C)on2)n1,inconclusive: -76.8%
5,COc1ccc2c(c1)C1C=CCC1C(c1cc3c(cc1Br)OCO3)N2 (stereo unspecified),inactive: 7.77%
6,CS(=O)(=O)N1CCc2cc(-c3csc(NC(=O)Cc4cccs4)n3)ccc21,inactive: -18.5%
7,O=C1OC(Cc2ccccn2)C(O)=C1C1=NCCCN1 (stereo unspecified),active: -82.5%
8,O=C(CCn1c(=O)oc2ccccc21)N1CCN(C(c2ccccc2)c2ccccc2)CC1,inconclusive: -62.2%
9,Cc1cccc(-n2cnc3cc(C(=O)N4CCCCC4)ccc32)c1,inactive: -26.3%
10,Cc1cc(CN2C(=O)c3ccccc3C2=O)on1,inconclusive: -61.7%
11,Cc1ccc(CCNS(=O)(=O)c2ccc(C)cc2)cc1,inconclusive: -57.7%
12,O=C(c1ccc(Cn2cc(Br)cn2)o1)N1N=C(C(F)F)CC1(O)C(F)F (stereo unspecified),inconclusive: -61.6%
13,O=C(/C=C/c1c(F)cccc1Cl)c1ccc(F)cc1,inactive: 59.8%
14,COc1cc(OC)cc(-c2nnc(SCC(=O)N(C(C)C)C(C)C)o2)c1,inconclusive: -31%
15,CN1CCN(c2nc(-c3ccccn3)nc3ccccc23)CC1,inconclusive: -34.4%
16,CCOc1c(CNCCN2CCOCC2)cccc1OC,inconclusive: -54.1%
17,O=C(Cn1c(=O)c2sccc2n(Cc2ccc([N+](=O)[O-])cc2)c1=O)NCCc1ccccc1,inconclusive: -58.9%
18,CCOC(=O)N1CCN(Cc2nc3c(c(=O)n(C)c(=O)n3C)n2Cc2ccc(F)cc2)CC1,inconclusive: -74.2%
19,C=CCn1c(COc2cc(C)ccc2C(C)C)nnc1SCC(=O)c1c(N)n(C)c(=O)n(C)c1=O,inactive: 34.7%
20,Cn1c(N/N=C/c2ccccc2)nc2sc3c(c2c1=O)CCC3,inconclusive: -42.1%
21,CCOC(=O)N1CCC(NC(=O)c2cccc3c2C(=O)N(c2ccc(OC)cc2)C3)CC1,inactive: 45.3%
22,O=C(COC(=O)CCSc1ccc(Cl)cc1)NCCc1ccccc1,inactive: 5.44%
23,Cc1cc(C)cc(Nc2cc(=O)n(C3CCCCC3)c(=O)[nH]2)c1,inactive: 1.11%

# Sorted by SMILES length (rising): some entries from above
row,Structure (SMILES),"activity change (PNC), negative = inhibition"
20,CCOC(=O)c1sc(Nc2ccc(C)cc2C)nc1C,inactive: 0.374%
1,Cc1sc(NC(=O)c2cccs2)nc1-c1ccccc1,inactive: -9.07%
21,COC(=O)c1nn(C23CC4CC(CC(C4)C2)C3)c2c1C(=O)N(c1ccc(Br)cc1)C2=O,inconclusive: -56.6%

# The results go on:

row,Structure (SMILES),"activity change (PNC), negative = inhibition"
1,O=C(O)CC(C(=O)OCC1CCCO1)N1CCOCC1 (stereo unspecified),inconclusive: -49.8%
2,CC12CNCC(C)(CN(C(c3ccccc3)c3ccccc3)C1)C2,inactive: 344%
3,Cc1[nH]c2ccccc2c1N=Nc1cccc(C(=O)O)c1,inconclusive: -74.4%
4,O=C(CSc1nnnn1-c1ccc(F)cc1)NC1CCCCC1,inactive: 13.4%
5,COc1ccc(OC)c(-c2csc(NC(=O)CSc3ccc(Br)cc3)n2)c1,inconclusive: -49.4%
6,O=C(NC1CCCCCC1)c1c(O)c2cccc3c2n(c1=O)CCC3,inconclusive: -36.6%
7,Cc1ccc(C(=O)NC(=C(Cl)Cl)S(=O)(=O)c2ccc(C)cc2)cc1,inconclusive: -39.7%
8,Cc1ccnc(SCC(=O)c2ccc(Br)cc2)c1C#N,inactive: 41%
9,CCOC(=O)c1ccccc1NC(=O)c1c(F)c(F)c(F)c(F)c1F,inconclusive: -39.4%
10,CC(NC(=O)c1ccccc1NC(=O)c1ccco1)C(=O)O (stereo unspecified),inconclusive: -51.9%
11,O=C(O)CC1S/C(=N\N=C/c2ccccc2)N(c2ccc(O)cc2)C1=O (stereo unspecified),inconclusive: -50.6%
12,Cc1onc(-c2ccccc2)c1C(=O)Nc1nnc(COc2ccc(Cl)cc2)s1,inconclusive: -31.8%
13,CCOC(=O)c1ccc(NC(=O)CN2C(=O)C(=O)N(CC(C)C)C2=O)cc1,inactive: -25.7%
14,CCNc1ccc(C(=O)OCC)cc1NC(=O)c1cc(S(=O)(=O)N2CCOCC2)ccc1C,inconclusive: -45.3%
15,COc1cc(/C=N/N(C)c2ccccc2)cc(Cl)c1O,inconclusive: -46.4%
16,O=C(CN1CCN(c2ccccc2)CC1)Nc1nccs1,inconclusive: -46.3%
17,Cc1ccc(SCc2cc(=O)[nH]c(N3CCN(Cc4ccccc4)CC3)n2)cc1,inconclusive: -57.5%
18,Cc1c(Cl)cccc1NC(=O)Nc1ccc(C(=O)N2CCCC2)cc1,active: -83.7%
19,Cc1ccc(/C=N/NC(=O)CSc2nc3ccccc3c(=O)n2-c2ccccc2C)s1,inconclusive: -30.3%
20,O=C(CN1CCN(C(=O)c2cccs2)CC1)Nc1ccc(Br)cc1,inconclusive: -39.2%
21,CCc1ccc2c(c1)/C(=N/N(C)C(=S)NC)C(=O)N2,inactive: 55%
22,COC(=O)n1c(=O)oc2cc(S(=O)(=O)N3CCOCC3)ccc21,inconclusive: -43.7%
23,CC(C)NC(=O)CCCOc1ccc(Cl)cc1Cl,inactive: 7.42%

row,Structure (SMILES),"activity change (PNC), negative = inhibition"
1,Cn1cnc2c1c(=O)n(Cc1c(Cl)cccc1Cl)c(=O)n2C,inconclusive: -70.1%
2,Cc1ccc(S(=O)(=O)Oc2ccc(C3C4=C(CCCC4=O)N(CCC(=O)O)C4=C3C(=O)CCC4)cc2Cl)cc1,inconclusive: -61.8%
3,Cc1nn(C)c(Cl)c1NC(=O)OCc1ccc(Cl)cc1Cl,inactive: -22.3%
4,CS(=O)(=O)N1CCc2cc(S(=O)(=O)Nc3ccc4c(c3)OCCO4)ccc21,inconclusive: -40.9%
5,CC(CCc1ccco1)NC(=O)CSc1cc(=O)n(C)c2ccccc12 (stereo unspecified),inconclusive: -47.5%
6,COc1ccc(C)cc1-n1nnnc1SCc1nc2ccccc2s1,inactive: -2.2%
7,c1ccc(-c2nc[nH]c2-c2ccccc2)cc1,inconclusive: -64.9%
8,Fc1ccc(Br)cc1C1C=C(c2ccc(Br)s2)Nc2ncnn21 (stereo unspecified),inconclusive: -50.9%
9,Cc1cc(-c2ccccc2)n(-c2cc(N/N=C/c3ccccc3O)ncn2)n1,active: -90.6%
10,CC(C)OC(=O)Cn1c(=O)sc2ccccc21,inactive: 6.27%
11,CCn1c(=O)n(CC)c2cc(S(N)(=O)=O)c(C)cc21,inconclusive: -47%
12,CC(=O)c1cnn(-c2cc(Oc3cccc(C)c3)ncn2)c1C,inconclusive: -33.6%
13,Cn1c(SCc2ccccc2F)nnc1-c1cnccn1,inactive: 16.8%
14,Cc1ccc(C(C)NC(=O)c2c(C)noc2C)cc1C (stereo unspecified),inactive: -10.9%
15,N#CCCN(Cc1cccnc1)C(=O)c1sc2cc(F)ccc2c1Cl,inactive: -5.83%
16,CC1Cc2ccccc2N1C(=O)CN1C(=O)CN(C)C(=O)c2ccccc21 (stereo unspecified),inconclusive: -35.6%
17,Cc1noc(C)c1COC(=O)c1cc(C)n(-c2ccccc2)c1C,inconclusive: -48.2%
18,COc1ccc(CCNC(=O)CCC(=O)N2CCN(S(=O)(=O)c3ccc(Cl)cc3)CC2)cc1OC,inconclusive: -68.7%
19,O=C(CN1C(=O)c2ccccc2S1(=O)=O)N1CCN(c2ccc(F)cc2)CC1,inconclusive: -34%
20,Cc1ccc(C)c(CSc2nnc(-c3ccccn3)n2N)c1,inconclusive: -36.1%
21,O=C(NCc1ccccc1)N1CCn2c(nc3ccccc32)C1,inconclusive: -37.1%
22,NC(=O)CNC(=O)C1CCCc2c1[nH]c1ccc(Cl)cc21 (stereo unspecified),inconclusive: -54.6%

# Among those listed so far, these have a tert-butyl group.
row,Structure (SMILES),"activity change (PNC), negative = inhibition"
12,CCOc1ccccc1N(C(=O)Cn1nnnc1-c1ccc(C)o1)C(CC)C(=O)NC(C)(C)C (stereo unspecified),inactive: 21.6%
13,COc1ccc2cc(CCNC(=O)C(C)(C)C)c(=O)[nH]c2c1,inconclusive: -65.8%
